The test is described as follows: qHTS Assay for Modulators of Lamin A Splicing. The settings on record: HeLa LMNA splicing GFP/RFP minigene ratio, 48 h. The method, boiled down:
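S3 HeLa cells stably expressing lamin A-EGFP splicing minigene plus DsRed2, 600 cells/well, 48 h compound exposure at 37C. Laser-scanning cytometry; analysed as GFP (500-530 nm)/RFP (575-640 nm) total intensity ratio; 0.5% DMSO vehicle.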
For orientation: Quantitative high-throughput screening tests each substance at several concentrations.

[1] abbreviates: measured here: RFP viability control channel.
Setting [2] is: measured here: GFP splicing reporter channel.

Drawing on PubChem BioAssay AID1487 (National Center for Advancing Translational Sciences (NCATS), 2009), this text covers AC50 for 34 molecules.

One may read the AC50 as the concentration giving half of the maximal activity seen.

Each structure is given as a SMILES string. Some of the results follow. Further columns of the screen follow, without active or inactive calls. The list favours compounds with an active or inconclusive main result. Words in brackets tell the shape of the fitted curve; partial curves, single points and poor fits give uncertain potencies.

For `CCCCOc1ccc(CSc2n[nH]c(C)n2)cc1`, under setting [1], the AC50 is 5.62 µM [rising, partial curve].
With `COc1cccc(/C=C/C(=O)OCC(=O)c2c[nH]c3ccccc23)c1OC`, the AC50 under setting [1] was 0.01 µM [rising, full curve, poor fit].
With `c1ccc2sc(N3CCN(Cc4nnnn4CC4CCCO4)CC3)nc2c1` (stereo unspecified), the AC50 runs as follows: under setting [2], 11.2 µM [rising, partial curve]; under setting [1], 15.8 µM [rising, single point].
Turning to `O=[N+]([O-])c1ccc(Cl)c(C2Nc3cccc4cccc(c34)N2)c1`, under setting [2], the AC50 was 35.5 µM [falling, single point].
In the case of `CCOc1ccccc1CNC(=O)C1CCN(C(=O)c2sccc2-n2cccc2)CC1`, the AC50 reads like this: under setting [2], 14.1 µM [rising, single point]; under setting [1], 15.8 µM [rising, single point].
For the molecule `O=C(/C=C/c1ccccc1)c1ccc2c(c1)OCCCCO2`, the AC50 was 12.6 µM [falling, partial curve] under setting [2] and 12.6 µM [falling, partial curve] under setting [1].
In the case of `O=C(Nc1ncc(Cc2ccccc2Cl)s1)C1=NCCN1`, under setting [1], the AC50 is 22.4 µM [rising, single point].
As to `O=C(CSc1nc2ccccc2o1)Nc1ccc(N2CCOCC2)c(Cl)c1`, the AC50 runs as follows: under setting [2], 11.2 µM [rising, single point]; under setting [1], 17.8 µM [rising, single point].
On to `CCCCN(C)C(=O)c1cc2cc3ccc(OC)cc3nc2s1`, for which the AC50 under setting [1] was 31.6 µM [rising, single point].
For the molecule `Cc1cc(SCC(=O)Nc2cccnc2Cl)nc2ccccc12`, the AC50 under setting [2] was 0.251 µM [rising, full curve] and the AC50 under setting [1] is 0.158 µM [rising, full curve, poor fit].
For the molecule `CCN(CC)c1ccc(NS(=O)(=O)c2ccc(-c3coc(C)n3)cc2)c(C)c1`, the AC50 was 0.2 µM [falling, full curve, poor fit] under setting [2] and 0.126 µM [falling, partial curve, poor fit] under setting [1].
Regarding `CC(C)Oc1ccc(Br)cc1/C=N\NC(N)=S`, the AC50 by setting is: under setting [2], 14.1 µM [rising, partial curve]; under setting [1], 15.8 µM [rising, partial curve].
Regarding `O=C(NCc1ccc2c(c1)CCN2C(=O)c1ccc(Cl)cc1)c1ccco1`, under setting [1], the AC50 is 15.8 µM [falling, single point].
In the case of `CCN1CCN(CCNC(=O)c2ccc(/C=C3/Sc4ccccc4N(Cc4ccccc4C)C3=O)cc2)CC1`, the AC50 under setting [1] was 25.1 µM [falling, partial curve, poor fit].
For the molecule `Cc1ccccc1Cn1nc(C)c(NC(=O)c2cc(-c3cccs3)on2)c1C`, the AC50 reads like this: under setting [2], 15.8 µM [rising, single point]; under setting [1], 22.4 µM [rising, single point].
As for `COc1cccc(/C=N/NC(=O)c2ccccc2)c1OS(=O)(=O)c1ccccc1`, the AC50 by setting is: under setting [2], 5.01 µM [rising, partial curve]; under setting [1], 2.82 µM [rising, partial curve].
Turning to `CC(=O)N1CCc2c(sc3c2c(=O)n(-c2cccc(Cl)c2)c(=O)n3Cc2ccc(F)cc2Cl)C1`, the AC50 under setting [2] is 0.01 µM [falling, full curve, poor fit] and the AC50 under setting [1] was 0.178 µM [falling, full curve, poor fit].
For the molecule `CCC(C)c1ccc(NC(=S)Nc2ccc(OC)c(OC)c2)cc1` (stereo unspecified), the AC50 under setting [1] is 35.5 µM [rising, single point].
Consider `CCOC(=O)c1noc2nc(C)n(CC(=O)Nc3ccc(OC)c(Cl)c3)c(=O)c12`, for which the AC50 under setting [2] is 0.00398 µM [rising, full curve, poor fit].
Consider `Cc1ccc(C(=O)N/C(=C\c2ccc(-c3ccc(Br)cc3)o2)C(=O)NC2CCS(=O)(=O)C2)cc1` (stereo unspecified), for which the AC50 under setting [2] was 22.4 µM [falling, single point] and the AC50 under setting [1] is 25.1 µM [falling, single point].
Consider `O=C(Nc1cc(S(=O)(=O)N2CCCCC2)ccc1Cl)c1ccccc1NS(=O)(=O)c1ccc(F)cc1`, for which the AC50 under setting [2] is 3.55 µM [rising, single point].
With `Cc1cccc(C(=O)N2CCC(=O)N(C(COCc3cccc(C(F)(F)F)c3)Cc3ccccc3)CC2)c1` (stereo unspecified), the AC50 under setting [2] was 35.5 µM [rising, partial curve, poor fit] and the AC50 under setting [1] was 35.5 µM [rising, partial curve, poor fit].
For the molecule `C=CCn1c(=N)n(CC(O)COc2ccc(OC)cc2)c2ccccc21` (stereo unspecified), the AC50 is, setting by setting: under setting [2], 20 µM [rising, partial curve]; under setting [1], 22.4 µM [rising, partial curve, poor fit].
Consider `O=C(Nc1ccc(N2CCOCC2)cc1)c1cc2ccccc2o1`, for which, under setting [1], the AC50 was 35.5 µM [rising, single point].
Same read-out and setting: in the case of `Oc1cc2ccccc2cc1-c1n[nH]c(=S)o1` it was 14.1 µM [rising, single point].
Consider `CC1=Nc2ccc(C)cc2/C1=C/c1c(N)n2oc(C)cc2nc1=O`, for which, under setting [2], the AC50 was 3.16 µM [rising, full curve, poor fit].
For `O=C1c2ccccc2C(=O)c2c(Nc3ccc(CCO)cc3)ccc(O)c21`, the AC50 reads like this: under setting [2], 10 µM [falling, partial curve, poor fit]; under setting [1], 11.2 µM [falling, partial curve].
`O=S(=O)(c1ccccc1)n1nc(-c2ccccc2)nc1NCc1ccco1`: the AC50 runs as follows: under setting [2], 14.1 µM [rising, single point]; under setting [1], 20 µM [rising, single point].
With `COc1ccc(CCC(=O)OC(C)C(=O)c2ccc(C)cc2)cc1` (stereo unspecified), the AC50 under setting [1] is 0.178 µM [rising, full curve].
For the molecule `C=C(CCC(=O)c1ccccc1)C(=O)c1ccccc1`, the AC50 was 35.5 µM [falling, single point] under setting [2] and 35.5 µM [falling, single point] under setting [1].
On to `N#CC(c1ccc(F)cc1)c1ccc(C(=O)c2ccc(F)cc2)cc1` (stereo unspecified), for which the AC50 under setting [1] was 12.6 µM [rising, single point].
Same read-out and setting: in the case of `CCN(CCN(C)C)C(=O)C1CCN(S(=O)(=O)c2c(C)noc2/C=C/c2ccccc2F)CC1` it was 17.8 µM [rising, single point]; in that of `CCn1c(CNc2cccc(Cl)c2)nnc1SCc1ccccc1`, 14.1 µM [rising, partial curve].
As for `CCN1/C(=C/c2ccc3cc(C)ccc3[n+]2CC)Sc2cc(C)ccc21`, the AC50 is, setting by setting: under setting [2], 3.98 µM [rising, partial curve]; under setting [1], 2.82 µM [rising, full curve].
